Biological target: p53 (wild type, pC53-SN3) (UniProt P04637)
Experiment: activity in cells
Conditions: luciferase reporter, Saos-2 cells, p53-inducible, protein in cells, only the site is given

Sequence	activity on this sequence (one copy of Box A)	activity on this sequence (one or two copies of Box B)
TCGAGAAAACAAGCCACCAACATGCTTGC (double strand) [IGF-BP3 Box A]	active	
TCGAGAGGAGGGCAAGACCTGCCAAGCCTGGGTA (double strand) [IGF-BP3 Box B]		active

From patent publication US5840673
